{
  "sequences": {"note": "By UniProt entry, the sequences of proteins in these tests, tags left out. Residues count along the entry.", "UniProt Q04721, residues 26-1677": "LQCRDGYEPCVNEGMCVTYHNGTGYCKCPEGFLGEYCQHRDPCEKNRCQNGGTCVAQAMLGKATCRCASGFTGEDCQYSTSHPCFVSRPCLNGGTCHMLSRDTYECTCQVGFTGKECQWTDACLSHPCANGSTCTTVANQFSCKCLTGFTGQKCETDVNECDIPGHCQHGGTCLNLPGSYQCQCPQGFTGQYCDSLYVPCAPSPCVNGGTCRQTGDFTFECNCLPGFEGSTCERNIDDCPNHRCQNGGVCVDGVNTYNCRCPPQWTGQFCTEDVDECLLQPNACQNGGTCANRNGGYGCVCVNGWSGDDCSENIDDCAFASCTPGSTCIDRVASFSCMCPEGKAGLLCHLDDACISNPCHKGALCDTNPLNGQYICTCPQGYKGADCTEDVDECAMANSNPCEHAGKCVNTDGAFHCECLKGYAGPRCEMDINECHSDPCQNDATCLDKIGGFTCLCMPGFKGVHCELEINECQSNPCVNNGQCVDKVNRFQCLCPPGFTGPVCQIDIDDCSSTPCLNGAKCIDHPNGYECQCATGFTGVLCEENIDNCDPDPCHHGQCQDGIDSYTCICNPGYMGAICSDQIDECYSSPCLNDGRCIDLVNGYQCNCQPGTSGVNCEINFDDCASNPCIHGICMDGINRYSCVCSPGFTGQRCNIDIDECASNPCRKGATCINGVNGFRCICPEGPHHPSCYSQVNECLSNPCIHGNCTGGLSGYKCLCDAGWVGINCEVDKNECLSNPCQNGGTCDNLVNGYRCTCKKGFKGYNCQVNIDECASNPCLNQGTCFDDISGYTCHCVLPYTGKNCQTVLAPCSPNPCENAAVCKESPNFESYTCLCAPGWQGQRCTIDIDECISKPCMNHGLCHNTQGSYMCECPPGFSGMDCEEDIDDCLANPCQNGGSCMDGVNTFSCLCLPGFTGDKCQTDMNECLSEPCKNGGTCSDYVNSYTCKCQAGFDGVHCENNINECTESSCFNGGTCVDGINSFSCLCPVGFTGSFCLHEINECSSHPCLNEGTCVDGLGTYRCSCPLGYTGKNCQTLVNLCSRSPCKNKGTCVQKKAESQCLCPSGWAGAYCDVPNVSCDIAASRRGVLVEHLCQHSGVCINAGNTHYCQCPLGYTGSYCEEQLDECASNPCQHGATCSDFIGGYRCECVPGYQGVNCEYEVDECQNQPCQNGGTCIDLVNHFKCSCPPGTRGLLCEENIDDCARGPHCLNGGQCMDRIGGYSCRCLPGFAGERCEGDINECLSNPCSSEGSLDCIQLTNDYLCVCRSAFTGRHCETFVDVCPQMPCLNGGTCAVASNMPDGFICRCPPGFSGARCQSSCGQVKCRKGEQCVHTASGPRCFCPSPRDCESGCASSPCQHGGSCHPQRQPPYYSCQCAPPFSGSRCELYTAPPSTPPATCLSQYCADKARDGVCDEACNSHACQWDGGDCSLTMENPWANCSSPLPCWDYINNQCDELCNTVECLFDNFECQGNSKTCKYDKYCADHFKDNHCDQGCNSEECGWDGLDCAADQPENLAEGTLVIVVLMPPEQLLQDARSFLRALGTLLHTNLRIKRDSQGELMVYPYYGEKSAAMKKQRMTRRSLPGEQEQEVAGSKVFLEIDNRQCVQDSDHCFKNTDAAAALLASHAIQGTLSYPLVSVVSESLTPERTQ", "UniProt P46531, residues 19-1796": "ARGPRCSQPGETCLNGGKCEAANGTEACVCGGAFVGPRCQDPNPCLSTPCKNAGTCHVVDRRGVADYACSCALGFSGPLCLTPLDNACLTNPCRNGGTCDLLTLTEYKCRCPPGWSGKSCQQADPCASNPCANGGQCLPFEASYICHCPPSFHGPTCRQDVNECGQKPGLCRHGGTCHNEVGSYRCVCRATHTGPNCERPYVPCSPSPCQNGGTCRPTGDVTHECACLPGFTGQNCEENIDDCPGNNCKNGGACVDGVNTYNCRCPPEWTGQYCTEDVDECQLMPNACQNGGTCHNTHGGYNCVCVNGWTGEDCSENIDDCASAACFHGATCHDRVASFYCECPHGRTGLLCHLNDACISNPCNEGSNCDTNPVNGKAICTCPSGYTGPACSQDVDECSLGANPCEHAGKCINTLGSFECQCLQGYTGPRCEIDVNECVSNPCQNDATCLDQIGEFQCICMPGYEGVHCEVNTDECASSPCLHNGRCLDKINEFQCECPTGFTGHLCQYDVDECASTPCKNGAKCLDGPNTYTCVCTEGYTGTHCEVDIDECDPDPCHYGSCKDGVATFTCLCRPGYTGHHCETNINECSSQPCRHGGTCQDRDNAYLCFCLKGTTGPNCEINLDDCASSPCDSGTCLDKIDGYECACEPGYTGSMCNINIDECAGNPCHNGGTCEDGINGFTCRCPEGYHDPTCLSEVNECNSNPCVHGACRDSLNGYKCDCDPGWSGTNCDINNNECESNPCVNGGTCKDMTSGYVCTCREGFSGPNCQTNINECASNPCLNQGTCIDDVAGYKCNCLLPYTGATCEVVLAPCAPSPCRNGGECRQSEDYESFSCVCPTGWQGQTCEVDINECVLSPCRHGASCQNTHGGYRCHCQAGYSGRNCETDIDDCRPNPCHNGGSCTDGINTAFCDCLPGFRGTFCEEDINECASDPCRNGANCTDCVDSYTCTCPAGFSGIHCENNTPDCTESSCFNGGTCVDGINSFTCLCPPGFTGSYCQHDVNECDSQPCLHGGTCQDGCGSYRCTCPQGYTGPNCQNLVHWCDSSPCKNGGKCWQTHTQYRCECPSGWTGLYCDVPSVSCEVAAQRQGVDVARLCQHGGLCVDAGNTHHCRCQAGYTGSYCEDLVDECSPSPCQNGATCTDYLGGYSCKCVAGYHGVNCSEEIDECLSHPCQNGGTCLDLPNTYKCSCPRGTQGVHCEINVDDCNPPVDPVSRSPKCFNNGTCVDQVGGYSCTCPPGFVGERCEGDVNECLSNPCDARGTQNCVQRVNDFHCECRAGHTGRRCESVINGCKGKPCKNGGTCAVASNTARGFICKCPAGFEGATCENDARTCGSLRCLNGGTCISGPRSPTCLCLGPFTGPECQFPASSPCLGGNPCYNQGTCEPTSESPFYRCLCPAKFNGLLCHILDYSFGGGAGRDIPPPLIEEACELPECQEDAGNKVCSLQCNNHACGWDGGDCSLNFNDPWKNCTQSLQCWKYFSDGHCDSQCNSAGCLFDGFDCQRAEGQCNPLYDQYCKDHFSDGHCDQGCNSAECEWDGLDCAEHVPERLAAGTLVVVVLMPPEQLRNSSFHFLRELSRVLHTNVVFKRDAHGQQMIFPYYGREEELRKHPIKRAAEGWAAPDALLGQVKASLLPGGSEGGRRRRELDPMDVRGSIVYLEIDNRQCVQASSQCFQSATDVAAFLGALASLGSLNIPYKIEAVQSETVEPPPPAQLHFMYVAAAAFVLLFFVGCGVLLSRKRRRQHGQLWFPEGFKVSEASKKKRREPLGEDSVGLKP"},
  "source": "paper doi:10.1101/2025.10.09.681391",
  "binders": {"B1": {"name": "full-length human CNTN6-3xHA (protein, UniProt Q9UQ52 20-999)", "chain": "DGLLSRPIFTQEPHDVIFPLDLSKSEVILNCAANGYPSPHYRWKQNGTDIDFTMSYHYRLDGGSLAINSPHTDQDIGMYQCLATNLLGTILSRKAKLQFAYIEDFETKTRSTVSVREGQGVVLLCGPPPHFGDLSYAWTFNDNPLYVQEDNRRFVSQETGNLYIAKVEPSDVGNYTCFITNKEAQRSVQGPPTPLVQRTDGVMGEYEPKIEVRFPETIQAAKDSSVKLECFALGNPVPDISWRRLDGSPLPGKVKYSKSQAILEIPNFQQEDEGFYECIASNLRGRNLAKGQLIFYAPPEWEQKIQNTHLSIYDNLLWECKASGKPNPWYTWLKNGERLNPEERIQIENGTLIITMLNVSDSGVYQCAAENKYQIIYANAELRVLASAPDFSKSPVKKKSFVQVGGDIVIGCKPNAFPRAAISWKRGTETLRQSKRIFLLEDGSLKIYNITRSDAGSYTCIATNQFGTAKNTGSLIVKERTVITVPPSKMDVTVGESIVLPCQVSHDPSIEVVFVWFFNGDVIDLKKGVAHFERIGGESVGDLMIRNIQLHHSGKYLCTVQTTLESLSAVADIIVRGPPGPPEDVQVEDISSTTSQLSWRAGPDNNSPIQIFTIQTRTPFSVGWQAVATVPEILNGKTYNATVVGLSPWVEYEFRVVAGNSIGIGEPSEPSELLRTKASVPVVAPVNIHGGGGSRSELVITWESIPEELQNGEGFGYIIMFRPVGSTTWSKEKVSSVESSRFVYRNESIIPLSPFEVKVGVYNNEGEGSLSTVTIVYSGEDEPQLAPRGTSLQSFSASEMEVSWNAIAWNRNTGRVLGYEVLYWTDDSKESMIGKIRVSGNVTTKNITGLKANTIYFASVRAYNTAGTGPSSPPVNVTTKKSPPSQPPANIAWKLTNSKLCLNWEHVKTMENESEVLGYKILYRQNRQSKTHILETNNTSAELLVPFEEDYLIEIRTVSDGGDGSSSEEIRIPKMSSLSS"}},
  "key": {"[1]": {"biological_target": "FLAG-tagged NOTCH2 extracellular domain (human) (UniProt Q04721)", "experiment": "co-IP"}, "[2]": {"biological_target": "FLAG-tagged NOTCH1 extracellular domain (human) (UniProt P46531)", "experiment": "co-IP"}},
  "note": "Results are given in words; binding and its absence hold for the method and conditions named. In cells and extracts the contact can be indirect. Some entries that bind do so weakly or less than the wild type.",
  "data": [
    {"binder": "B1", "values": [
      {"measurement": "binding", "setting": "[1]", "result": "binds"},
      {"measurement": "binding", "setting": "[2]", "result": "binds"}
    ]}
  ]
}
